Test results reported in US20220331348A1, “METHOD OF PREPARING PENTACYCLIC TRITERPENOID SAPONINS AND DRUG COMPOSITION” (CHINA PHARMACEUTICAL UNIVERSITY, priority 2019, published 2022).
At least one structure is not confirmed: it was looked up by name or label, or the drawing left a doubt.

Test system: high fat diet induced NASH model rats
Experiment: High fat diet (HFD) induced NASH rat model
Type: in vivo
Settings: 5 mg/Kg intragastrically every day
Protocol: Animal: 32 SD male rats of SPF level with 6 weeks old and 220 g were purchased from Beijing Vital River Laboratory Animal Technology Co., Ltd. All the animals maintained 12 h alternative circadian rhythm with free access to food.
Reagent: the ginsenoside Ro (I) was purchased from Shanghai Boka Chemistry Technology Co., Ltd; obeticholic acid (OCA) was purchased from Jiangsu Vcare PharmaTech Co., Ltd; high fat diets were purchased from Research Diets (D12492, 60 kcal %); and standard feeds were purchased from Research Diets (D12450B, 10 kcal %).
The rats were randomly divided into 4 groups based on the weight: a control group (CHOW), a high fat diet model group (HFD), a positive drug obeticholic acid (OCA, 5 mg/Kg) group (HFD+OCA) and a ginsenoside Ro (Ro for short, 5 mg/kg) group (HFD+Ro). The control group was fed with the standard feeds and drank water normally; and the rest groups were fed with the high fat diets, drank 10% aqueous sucrose solution for replacing the water and were modeled for 20 weeks.
After 20 weeks, the control group and the high fat diet model group were given with a CMC-Na solution with the volume fraction of 0.5% intragastrically every day, the HFD+OCA group was given with the obeticholic acid (5 mg/Kg) intragastrically every day, and the HFD+Ro was given with the ginsenoside Ro (5 mg/Kg) intragastrically every day. Administration was conducted for 8 weeks, during which, the control group was given with the standard feeds and drank the water normally, and the rest three groups were given with the high fat diets and drank 10% aqueous sucrose solution. The rats in each group were weighed every day, weights, hairs, feces and activity conditions were carefully observed and recorded.
The rats were deprived of food but not water for 12 h in advance; and the next morning, blood was taken from eye sockets, the rats were sacrificed, and livers were harvested. Right liver lobule tissues were fixed with 4% paraformaldehyde for HE stained slicing. […]
Liver tissues preserved at −80° C. were put in the liquid nitrogen, about 10 mg of the liver tissues were quickly dissected out, 500 μL of precooled tissue lysate was added, and the tissues were homogenized with a homogenizer and then left to lyse on ice for 30 min; and centrifugation was conducted for 15min at 4° C. and 12000 rpm, […] of a supernatant was sucked to a clean EP tube, […] of the supernatant was taken for BCA protein quantification, […] of 5*loading buffer was added in the rest protein supernatant for denaturing by boiling, SDS-PAGE electrophoresis was conducted subsequently, the proteins were transferred onto a PVDF membrane, then incubation and elution of a relevant antibody were conducted, and finally, a chemiluminescence apparatus was employed for imaging analysis.

CC[C@H]1[C@@H](O)[C@@H]2[C@H](CC[C@]3(C)[C@@H]([C@H](C)CCC(=O)O)CC[C@@H]23)[C@@]2(C)CC[C@@H](O)C[C@@H]12 [OCA, obeticholic acid, reference compound]
level of the LDL-c in the serum (8 weeks (FIG. 4)): slightly up-regulates
level of the TC in the serum (8 weeks (FIG. 4)): slightly up-regulates
level of the TG in the serum (8 weeks, vs HFD model group (FIG. 4)): significantly lower
level of the TG in the liver (8 weeks, vs HFD model group (FIG. 5)): significantly lower
